Results are given in words; binding and its absence hold for the method and conditions named. In cells and extracts the contact can be indirect. Some binding calls cover weakened binding; strength is not graded here.
Biological target: T1, PGC-1α (human (endogenous in HiBEC)) (UniProt Q9UBK2)
T1 sequence: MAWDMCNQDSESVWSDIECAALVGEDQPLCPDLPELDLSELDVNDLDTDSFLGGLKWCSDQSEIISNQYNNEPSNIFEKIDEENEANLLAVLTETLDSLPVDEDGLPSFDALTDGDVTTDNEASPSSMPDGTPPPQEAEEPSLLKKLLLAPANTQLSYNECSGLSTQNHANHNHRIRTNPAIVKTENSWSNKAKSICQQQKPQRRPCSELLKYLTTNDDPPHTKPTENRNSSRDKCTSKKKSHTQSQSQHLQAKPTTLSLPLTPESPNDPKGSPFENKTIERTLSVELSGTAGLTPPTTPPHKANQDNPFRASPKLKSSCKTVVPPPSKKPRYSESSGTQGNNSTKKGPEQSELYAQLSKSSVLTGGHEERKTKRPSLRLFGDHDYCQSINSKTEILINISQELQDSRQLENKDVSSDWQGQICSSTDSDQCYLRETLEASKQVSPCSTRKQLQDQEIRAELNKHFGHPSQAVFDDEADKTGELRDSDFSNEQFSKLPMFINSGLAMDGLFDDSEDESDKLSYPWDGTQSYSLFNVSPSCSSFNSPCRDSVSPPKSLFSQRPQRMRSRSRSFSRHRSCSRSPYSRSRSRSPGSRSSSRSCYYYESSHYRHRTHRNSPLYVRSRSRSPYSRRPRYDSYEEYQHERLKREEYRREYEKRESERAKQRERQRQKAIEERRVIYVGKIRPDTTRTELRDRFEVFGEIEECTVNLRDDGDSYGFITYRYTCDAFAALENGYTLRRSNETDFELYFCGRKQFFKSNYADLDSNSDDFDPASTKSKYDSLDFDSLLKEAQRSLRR
Experiment: co-IP; HiBEC total lysates (0.5% NP-40, 150 mM NaCl, pH 7.5); IP with antibody to Sirt6 or PGC-1α at 4 °C for 2 h, then protein A+G sepharose beads; immunoblot for PGC-1α and Sirt6; called the endogenous level

The chains behind the UniProt entries cited, without tags or fusion partners.
UniProt Q8N6T7: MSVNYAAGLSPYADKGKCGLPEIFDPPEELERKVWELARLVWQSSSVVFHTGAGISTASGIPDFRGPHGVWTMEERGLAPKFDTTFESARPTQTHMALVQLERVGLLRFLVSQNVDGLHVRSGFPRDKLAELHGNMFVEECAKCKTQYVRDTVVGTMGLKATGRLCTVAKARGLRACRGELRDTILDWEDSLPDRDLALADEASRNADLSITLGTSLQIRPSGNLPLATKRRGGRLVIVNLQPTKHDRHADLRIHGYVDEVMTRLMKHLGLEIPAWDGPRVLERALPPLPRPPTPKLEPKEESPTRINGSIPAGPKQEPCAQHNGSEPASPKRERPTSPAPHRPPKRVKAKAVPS

In the case of Sirt6 (from UniProt Q8N6T7 1-355), the binding is reported as “binds”.
